Experimental data reported in PubChem BioAssay AID248 (DTP/NCI, 2004).
The list shows only some results of the screen, not a fair sample: it gathers some chemical classes. Not every dose and run of a compound is shown. T/C is the treated group as % of the vehicle group. Where survival is the endpoint, this PubChem deposit counts one and a half times the control or more as active, and values a quarter to a half above the control carry no call in these data; other NCI protocols may use other cut-offs. Some entries show no survivor count and are marked so; the dose need not have been tolerated. Schedules are NCI's codes, read here as Q, the interval in days (D) or hours (H), X, the number of doses. Some doses were run more than once; the values are given in rising order. Some schedule codes hold Z or #, which are not explained here.

System: L1210 leukemia ip in BDF1 mice, survival T/C
Test: NCI In Vivo Anticancer Drug Screen. Data for tumor model L1210 Leukemia (intraperitoneal) in B6D2F1 (BDF1) mice
Details: T/C endpoint: mean survival time, higher T/C = longer survival

NC(Cc1cccc(N(CCCl)CCCl)c1)C(=O)O (stereo unspecified)
T/C (dose: 0.12 mg/kg/injection, schedule: Q01DX Z (oral), vehicle: carboxymethylcellulose (CMC)): 117 % of control [survivor count not shown] | T/C (dose: 0.18 mg/kg/injection, schedule: Q01DX Z (oral), vehicle: carboxymethylcellulose (CMC)): 125 % of control [survivor count not shown] | T/C (dose: 0.24 mg/kg/injection, schedule: Q01DX001 (ip), vehicle: carboxymethylcellulose (CMC)): 110 % of control [survivor count not shown] | T/C (dose: 0.24 mg/kg/injection, schedule: Q01DX009 (ip), vehicle: saline): 107 % of control [survivor count not shown] | T/C (dose: 0.28 mg/kg/injection, schedule: Q01DX Z (oral), vehicle: carboxymethylcellulose (CMC)): 115 % of control [survivor count not shown] | T/C (dose: 0.29 mg/kg/injection, schedule: Q01DX006 (iv), vehicle: carboxymethylcellulose (CMC)): 114 % of control [survivor count not shown] | T/C (dose: 0.29 mg/kg/injection, schedule: Q01DX Z (ip), vehicle: carboxymethylcellulose (CMC)): 119 % of control [survivor count not shown] | T/C (dose: 0.37 mg/kg/injection, schedule: Q01DX001 (ip), vehicle: carboxymethylcellulose (CMC)): 111 % of control [survivor count not shown] | T/C (dose: 0.43 mg/kg/injection, schedule: Q01DX Z (oral), vehicle: carboxymethylcellulose (CMC)): 125 [survivor count not shown] and 135 % of control [survivor count not shown] | T/C (dose: 0.44 mg/kg/injection, schedule: Q01DX006 (iv), vehicle: carboxymethylcellulose (CMC)): 111 % of control [survivor count not shown] | T/C (dose: 0.44 mg/kg/injection, schedule: Q01DX Z (ip), vehicle: carboxymethylcellulose (CMC)): 130 % of control [survivor count not shown] | T/C (dose: 0.47 mg/kg/injection, schedule: Q01DX009 (ip), vehicle: saline): 117 % of control [survivor count not shown] | T/C (dose: 0.5 mg/kg/injection, schedule: Q01DX009 (ip), vehicle: carboxymethylcellulose (CMC)): 135 % of control [survivor count not shown] | T/C (dose: 0.5 mg/kg/injection, schedule: Q01DX009 (oral), vehicle: carboxymethylcellulose (CMC)): 112 % of control [survivor count not shown] | T/C (dose: 0.5 mg/kg/injection, schedule: Q01DX009 (sc), vehicle: carboxymethylcellulose (CMC)): 115 % of control [survivor count not shown] | T/C (dose: 0.56 mg/kg/injection, schedule: Q01DX001 (ip), vehicle: carboxymethylcellulose (CMC)): 117 % of control [survivor count not shown] | T/C (dose: 0.63 mg/kg/injection, schedule: Q01DX010 (ip), vehicle: saline): 110 [survivor count not shown] and 112 % of control [survivor count not shown] | T/C (dose: 0.66 mg/kg/injection, schedule: Q01DX006 (iv), vehicle: carboxymethylcellulose (CMC)): 109 % of control [survivor count not shown] | T/C (dose: 0.66 mg/kg/injection, schedule: Q01DX Z (ip), vehicle: carboxymethylcellulose (CMC)): 160 % of control [survivor count not shown] | T/C (dose: 0.73 mg/kg/injection, schedule: Q01DX Z (oral), vehicle: carboxymethylcellulose (CMC)): 131 % of control [survivor count not shown] | T/C (dose: 0.8 mg/kg/injection, schedule: Q01DX Z (ip), vehicle: carboxymethylcellulose (CMC)): 159 % of control [survivor count not shown] | T/C (dose: 0.84 mg/kg/injection, schedule: Q01DX001 (ip), vehicle: carboxymethylcellulose (CMC)): 134 [survivor count not shown] and 140 % of control [survivor count not shown] | T/C (dose: 0.93 mg/kg/injection, schedule: Q01DX009 (ip), vehicle: other): 131 % of control [survivor count not shown] | T/C (dose: 1.0 mg/kg/injection, schedule: Q01DX006 (iv), vehicle: carboxymethylcellulose (CMC)): 111 % of control [survivor count not shown] | T/C (dose: 1.0 mg/kg/injection, schedule: Q01DX009 (ip), vehicle: carboxymethylcellulose (CMC)): 143 % of control [survivor count not shown] | T/C (dose: 1.0 mg/kg/injection, schedule: Q01DX009 (oral), vehicle: carboxymethylcellulose (CMC)): 119 % of control [survivor count not shown] | T/C (dose: 1.0 mg/kg/injection, schedule: Q01DX009 (sc), vehicle: carboxymethylcellulose (CMC)): 121 % of control [survivor count not shown] | T/C (dose: 1.0 mg/kg/injection, schedule: Q01DX Z (im), vehicle: carboxymethylcellulose (CMC)): 117 % of control [survivor count not shown] | T/C (dose: 1.0 mg/kg/injection, schedule: Q01DX Z (ip), vehicle: carboxymethylcellulose (CMC)): 119 [survivor count not shown] and 127 % of control [survivor count not shown] | T/C (dose: 1.0 mg/kg/injection, schedule: Q01DX Z (sc), vehicle: carboxymethylcellulose (CMC)): 119 % of control [survivor count not shown] | T/C (dose: 1.0 mg/kg/injection, schedule: Q## X003 (ip), vehicle: carboxymethylcellulose (CMC)): 113 [survivor count not shown] and 122 % of control [survivor count not shown] | T/C (dose: 1.0 mg/kg/injection, schedule: Q## X024 (ip), vehicle: carboxymethylcellulose (CMC)): 107 % of control [survivor count not shown] | T/C (dose: 1.1 mg/kg/injection, schedule: Q01DX Z (oral), vehicle: carboxymethylcellulose (CMC)): 128 % of control [survivor count not shown] | T/C (dose: 1.2 mg/kg/injection, schedule: Q01DX001 (ip), vehicle: carboxymethylcellulose (CMC)): 146 % of control [survivor count not shown] | T/C (dose: 1.25 mg/kg/injection, schedule: Q01DX001 (ip), vehicle: saline): 113 % of control [survivor count not shown] | T/C (dose: 1.25 mg/kg/injection, schedule: Q01DX009 (ip), vehicle: saline): 131 [survivor count not shown] and 134 % of control [survivor count not shown] | T/C (dose: 1.25 mg/kg/injection, schedule: Q01DX010 (ip), vehicle: saline): 134 [survivor count not shown] and 139 % of control [survivor count not shown] | T/C (dose: 1.25 mg/kg/injection, schedule: Q01DX Z (ip), vehicle: carboxymethylcellulose (CMC)): 150 % of control [survivor count not shown] | T/C (dose: 1.6 mg/kg/injection, schedule: Q01DX009 (ip), vehicle: other): 134 % of control [survivor count not shown] | T/C (dose: 1.7 mg/kg/injection, schedule: Q01DX Z (oral), vehicle: carboxymethylcellulose (CMC)): 128 [survivor count not shown] and 140 % of control [survivor count not shown] | T/C (dose: 1.9 mg/kg/injection, schedule: Q01DX001 (ip), vehicle: carboxymethylcellulose (CMC)): 128 % of control [survivor count not shown] | T/C (dose: 2.0 mg/kg/injection, schedule: Q01DX001 (ip), vehicle: carboxymethylcellulose (CMC)): 124 % of control [survivor count not shown] | T/C (dose: 2.0 mg/kg/injection, schedule: Q01DX009 (ip), vehicle: carboxymethylcellulose (CMC)): 152 % of control [survivor count not shown] | T/C (dose: 2.0 mg/kg/injection, schedule: Q01DX009 (oral), vehicle: carboxymethylcellulose (CMC)): 127 % of control [survivor count not shown] | T/C (dose: 2.0 mg/kg/injection, schedule: Q01DX009 (sc), vehicle: carboxymethylcellulose (CMC)): 131 % of control [survivor count not shown] | T/C (dose: 2.0 mg/kg/injection, schedule: Q01DX Z (im), vehicle: carboxymethylcellulose (CMC)): 132 % of control [survivor count not shown] | T/C (dose: 2.0 mg/kg/injection, schedule: Q01DX Z (ip), vehicle: carboxymethylcellulose (CMC)): 150 % of control [survivor count not shown] | T/C (dose: 2.0 mg/kg/injection, schedule: Q01DX Z (sc), vehicle: carboxymethylcellulose (CMC)): 130 % of control [survivor count not shown] | T/C (dose: 2.0 mg/kg/injection, schedule: Q## X002 (ip), vehicle: carboxymethylcellulose (CMC)): 124 [survivor count not shown] and 139 % of control [survivor count not shown] | T/C (dose: 2.0 mg/kg/injection, schedule: Q## X002 (oral), vehicle: carboxymethylcellulose (CMC)): 112 % of control [survivor count not shown] | T/C (dose: 2.0 mg/kg/injection, schedule: Q## X003 (ip), vehicle: carboxymethylcellulose (CMC)): 138 [survivor count not shown] and 141 % of control [survivor count not shown] | T/C (dose: 2.0 mg/kg/injection, schedule: Q## X016 (ip), vehicle: carboxymethylcellulose (CMC)): 107 % of control [survivor count not shown] | T/C (dose: 2.0 mg/kg/injection, schedule: Q## X024 (ip), vehicle: carboxymethylcellulose (CMC)): 119 % of control [survivor count not shown] | T/C (dose: 2.5 mg/kg/injection, schedule: Q01DX001 (ip), vehicle: saline): 103 % of control [survivor count not shown] | T/C (dose: 2.5 mg/kg/injection, schedule: Q01DX009 (ip), vehicle: saline): 146 [survivor count not shown] and 162 % of control [survivor count not shown] | T/C (dose: 2.5 mg/kg/injection, schedule: Q01DX010 (ip), vehicle: saline): 159 [survivor count not shown] and 181 % of control [survivor count not shown] | T/C (dose: 2.6 mg/kg/injection, schedule: Q01DX Z (oral), vehicle: carboxymethylcellulose (CMC)): 143 % of control [survivor count not shown] | T/C (dose: 2.66 mg/kg/injection, schedule: Q01DX009 (ip), vehicle: other): 160 % of control [survivor count not shown] | T/C (dose: 2.9 mg/kg/injection, schedule: Q01DX001 (ip), vehicle: carboxymethylcellulose (CMC)): 109 [survivor count not shown] and 134 % of control [survivor count not shown] | T/C (dose: 4.0 mg/kg/injection, schedule: Q01DX001 (ip), vehicle: carboxymethylcellulose (CMC)): 142 [survivor count not shown] and 151 % of control [survivor count not shown] | T/C (dose: 4.0 mg/kg/injection, schedule: Q01DX001 (oral), vehicle: carboxymethylcellulose (CMC)): 112 % of control [survivor count not shown]
